Assay results from PubChem BioAssay AID504467 (National Center for Advancing Translational Sciences (NCATS), 2011).
Values joined by “and” are separate entries in the source; they are usually repeats but may differ in a detail not shown here. Identical values can stand only once. Out of some 330,000 compounds screened, about 7,700 (2.3%) were called active. This list was built around the results that the source calls inconclusive (neither active nor inactive); the mix of calls is not that of the screen. The call rests on the fitted dose curve; in most records, active means well fitted inhibition curve with a large enough effect; inconclusive means small, poorly fitted or top-dose-only effect, or effect the other way; inactive means flat fitted curve, though single readings scatter. Potencies of inconclusive entries are doubtful fits and often do not repeat.

Experiment: qHTS screen for small molecules that inhibit ELG1-dependent DNA repair in human embryonic kidney (HEK293T) cells expressing luciferase-tagged ELG1; further: nearly all actives have a fitted effect of over 55% in size
Details: HEK293T ELG1-luciferase reporter, luminescence, 16 h, DNA damage induced by 5-fluorouridine; series mostly up to 46.1 µM
Procedure, shortened: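 Quantitative HTS, concentration-response format. 2,000 cells/well co-treated with 5-fluorouridine and compound, 16 hr in 5% CO2 at 37 °C; ONE-Glo luminescence read after 30 min.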
Potency means the concentration at half of the fitted maximal effect.

Structure (SMILES) | Potency
COc1cccc(CNC(=O)c2cc(S(=O)(=O)N3CCOCC3)ccc2N2CCCC2)c1 | inactive
Nc1nc(SCC(=O)Nc2ccc(OCc3ccccc3)cc2)n[nH]1 | inconclusive: 23.1 µM [activator, partial curve]
O=C(CCC1CCCC1)NCCCN1CCOCC1 | inconclusive: 23.1 µM [activator, partial curve, poor fit]
Cc1cc(NC(=O)CSc2nnc(COc3cccc(C)c3C)n2Cc2ccco2)no1 | inconclusive: 0.651 µM [activator, full curve, poor fit]
CC1=NN(c2ccc(C)cc2)C(=O)/C1=C/c1ccc(-c2cc([N+](=O)[O-])ccc2O)o1 | inconclusive: 25.9 µM [inhibitor, single point]
CC(=O)c1cccc(S(=O)(=O)N2CCCC(c3nc(-c4ccc(C)o4)no3)C2)c1 (stereo not drawn) | inconclusive: 32.6 µM [inhibitor, single point]
CNS(=O)(=O)c1cccc(C(=O)OCC(=O)NC2CCCC2)c1 | inconclusive: 8.2 µM [activator, partial curve, poor fit]
COc1ccc(/C=C2\SC(N3CCCCC3)=NC2=O)cc1OC | inconclusive: 14.6 µM [activator, partial curve, poor fit]
COc1cccc(C(=O)Nc2ccc(NC(=O)c3cc4ccccc4o3)c(OC)c2)c1 | inactive
N/C(Cc1ccc(Cl)cc1)=N\OC(=O)c1cccc2ccccc12 | inconclusive: 16.4 µM [inhibitor, single point]
CC(C)N1CCC(=NNC(=O)c2ccc(Br)o2)CC1 | inactive
CCOc1ccc(C(=O)CC(Sc2ccc(C)cc2)C(=O)O)cc1 (stereo not drawn) | inactive
O=C(NCc1ccco1)c1ccc([N+](=O)[O-])o1 | inactive
Cc1ccc(Cc2c(C)nc3nc(SCC(=O)NCCCN4CCCC4)nn3c2C)cc1 | inactive
CCOc1ccc(-c2ccc(SCC(=O)Nc3nnc(C)s3)nn2)cc1 | inconclusive: 2.59 µM [activator, partial curve]
CC(=O)c1ccc(OC(C)c2nc3ccccc3s2)cc1 (stereo not drawn) | inconclusive: 16.4 µM [activator, single point]
Cn1c(=O)c2c(nc(NCc3ccco3)n2CC(O)COc2ccccc2)n(C)c1=O (stereo not drawn) | inconclusive: 16.4 µM [inhibitor, single point]
CCCOc1ccc(N2C(=O)CC(N(CCc3ccc(OC)c(OC)c3)C(=O)c3ccccc3)C2=O)cc1 (stereo not drawn) | inconclusive: 25.9 µM [inhibitor, partial curve, poor fit]
COc1ccc(-n2c(C)cc(/C=C3/SC(=O)N(CC(=O)N4CCOCC4)C3=O)c2C)cc1 | inconclusive: 9.2 µM [activator, partial curve]
Cc1cc(C)n2nc(C(=O)OCC(=O)c3ccc(F)cc3)nc2n1 | inconclusive: 4.61 µM [activator, single point]
Clc1ncccc1-c1nnn(-c2ccccc2)n1 | inconclusive: 8.2 µM [activator, partial curve]
COC(=O)c1c(NC(=O)/C=C/C(=O)O)sc(C)c1-c1ccc(C)cc1 | inactive

Structure (SMILES) | Potency
CCOC(=O)C1=C(C)N(C)C(=S)NC1c1cccc(Cl)c1Cl (stereo not drawn) | inconclusive: 18.3 µM [inhibitor, single point]
[N-]=[N+]=CC(=O)C(Cc1ccccc1)N1C(=O)c2ccccc2C1=O (stereo not drawn) | inactive
CN(C)/C=N/c1nc2nccc(-c3ccc(F)cc3)n2n1 | inactive
CC(C)=CCC/C(C)=C/CC/C(C)=C/CC/C(C)=C/CC1=C(C)C(=O)c2ccccc2C1=O | inconclusive: 6.51 µM [inhibitor, partial curve, poor fit]
CNCCCOc1cccc(Oc2ccccc2)c1 | inconclusive: 18.3 µM [activator, single point]
NC(=S)NNC(=O)[C@@H]1CCCC[C@@H]1C(=O)O | inactive
O=C(c1cc(-c2ccco2)nc2ccccc12)N1CCN(Cc2ccccc2)CC1 | inconclusive: 23.1 µM [activator, single point]
NS(=O)(=O)c1ccc(NC(=S)NCc2ccc(F)cc2)cc1 | inconclusive: 32.6 µM [activator, partial curve, poor fit]
CCN(c1ccc(OC)cc1)S(=O)(=O)c1nnc(NC(=O)CC(C)C)s1 | inactive
Cc1cccc(NC(=O)N(Cc2nc3ccccc3c(=O)[nH]2)C2CCCC2)c1 | inactive
Cc1ccc(N/C=C2/Sc3ccccc3NC2=O)cc1 | inconclusive: 11.6 µM [activator, partial curve]
COCc1c(C(=O)NC2CCCCC2)sc2cccc(F)c12 | inconclusive: 16.4 µM [activator, partial curve]
CCOc1cc(-c2nc(-c3ccc(OC)cc3)no2)cc(OCC)c1OCC | inactive
O=C(NC1CCCCC1)C(c1cccs1)N(C(=O)c1ccccn1)c1ccccc1 (stereo not drawn) | inconclusive: 18.4 µM [inhibitor, partial curve, poor fit]
O=C1CCCN2N=C(SCC(=O)N3N=C(c4ccc(Br)cc4)CC3c3ccc(F)cc3)SC2=N1 (stereo not drawn) | inconclusive: 23.1 µM [inhibitor, partial curve, poor fit]
CCOC(=O)C1=NN(N=O)C2(CC(=O)N(c3cc(C)cc(C)c3)C2=O)C1 (stereo not drawn) | inconclusive: 29.1 µM [activator, partial curve, poor fit]
COc1ccc(NC(=O)/C(C#N)=C/c2ccc(OCCN3CCOCC3)c(OC)c2)c(OC)c1 | inactive
C/C(=N/NC(=O)c1cc(C)[nH]n1)c1ccco1 | inconclusive: 13 µM [activator, partial curve]
N#Cc1ccccc1S(=O)(=O)N1CCN(CC(=O)Nc2ccccc2C(=O)NC2CC2)CC1 | inconclusive: 18.3 µM [inhibitor, single point]
C=CCn1c(SCC(=O)Nc2ccc(NC(C)=O)cc2)nc2sc(C)c(C)c2c1=O | inconclusive: 2.91 µM [inhibitor, full curve]
O=C(Nc1ncc([N+](=O)[O-])s1)c1cccs1 | inconclusive: 2.31 µM [activator, partial curve] and inconclusive: 1.83 µM [activator, partial curve]
